28 targets from the supplement of paper PMC12819154, “High-throughput peptide-centric local stability assay extends protein–ligand identification to membrane proteins, tissues and bacteria” (Nature Structural & Molecular Biology, 2025) can be followed below.

Sequences of proteins named here, by UniProt entry; tags and fusion partners are left off. A change or cut given only in a name is not applied to a line headed by its entry.
UniProt Q9Y224: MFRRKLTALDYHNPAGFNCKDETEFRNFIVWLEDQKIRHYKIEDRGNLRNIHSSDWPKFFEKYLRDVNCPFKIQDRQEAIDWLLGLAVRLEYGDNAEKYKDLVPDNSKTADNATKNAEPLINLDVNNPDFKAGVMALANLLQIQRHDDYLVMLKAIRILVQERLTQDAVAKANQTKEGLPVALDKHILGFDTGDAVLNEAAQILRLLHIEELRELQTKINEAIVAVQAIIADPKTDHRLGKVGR
UniProt Q9UKT4: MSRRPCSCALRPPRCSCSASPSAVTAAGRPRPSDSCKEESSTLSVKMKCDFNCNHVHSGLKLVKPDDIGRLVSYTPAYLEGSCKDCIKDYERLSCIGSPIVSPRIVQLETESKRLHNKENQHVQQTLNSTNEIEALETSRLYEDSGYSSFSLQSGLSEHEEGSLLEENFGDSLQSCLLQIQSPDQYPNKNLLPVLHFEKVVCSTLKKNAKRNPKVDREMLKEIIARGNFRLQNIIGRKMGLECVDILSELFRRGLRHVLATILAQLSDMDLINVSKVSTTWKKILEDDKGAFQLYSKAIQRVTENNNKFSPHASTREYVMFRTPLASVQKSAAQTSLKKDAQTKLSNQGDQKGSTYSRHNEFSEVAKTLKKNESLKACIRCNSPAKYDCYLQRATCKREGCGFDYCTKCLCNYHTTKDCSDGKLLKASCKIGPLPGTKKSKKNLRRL
UniProt Q9ULF5: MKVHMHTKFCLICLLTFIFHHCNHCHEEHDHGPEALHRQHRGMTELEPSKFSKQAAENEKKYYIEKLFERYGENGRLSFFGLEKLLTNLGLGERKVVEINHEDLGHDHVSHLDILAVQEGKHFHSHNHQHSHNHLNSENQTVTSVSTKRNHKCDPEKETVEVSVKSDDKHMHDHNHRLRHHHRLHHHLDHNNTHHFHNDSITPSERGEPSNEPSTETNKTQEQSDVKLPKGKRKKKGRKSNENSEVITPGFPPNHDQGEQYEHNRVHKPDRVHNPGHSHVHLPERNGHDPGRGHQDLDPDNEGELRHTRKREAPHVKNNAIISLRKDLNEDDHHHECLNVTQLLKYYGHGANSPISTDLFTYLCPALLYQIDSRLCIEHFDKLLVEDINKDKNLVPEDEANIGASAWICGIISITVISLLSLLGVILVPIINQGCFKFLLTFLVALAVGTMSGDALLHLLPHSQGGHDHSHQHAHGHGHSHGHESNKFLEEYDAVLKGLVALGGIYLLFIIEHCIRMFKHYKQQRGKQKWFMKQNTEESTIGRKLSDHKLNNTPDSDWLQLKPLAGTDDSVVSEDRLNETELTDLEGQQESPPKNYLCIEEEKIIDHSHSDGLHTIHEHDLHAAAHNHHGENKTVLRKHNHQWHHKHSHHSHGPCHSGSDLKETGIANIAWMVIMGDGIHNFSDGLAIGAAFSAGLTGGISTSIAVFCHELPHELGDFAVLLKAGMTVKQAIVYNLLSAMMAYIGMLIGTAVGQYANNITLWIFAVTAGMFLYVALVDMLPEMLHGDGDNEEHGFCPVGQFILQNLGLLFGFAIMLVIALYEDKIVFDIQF
UniProt Q9Y2B0: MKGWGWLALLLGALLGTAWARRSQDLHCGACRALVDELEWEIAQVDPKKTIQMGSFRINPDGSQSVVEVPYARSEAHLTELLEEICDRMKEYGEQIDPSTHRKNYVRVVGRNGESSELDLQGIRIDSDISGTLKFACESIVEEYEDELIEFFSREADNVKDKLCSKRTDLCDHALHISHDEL
UniProt Q9UM13, whole entry: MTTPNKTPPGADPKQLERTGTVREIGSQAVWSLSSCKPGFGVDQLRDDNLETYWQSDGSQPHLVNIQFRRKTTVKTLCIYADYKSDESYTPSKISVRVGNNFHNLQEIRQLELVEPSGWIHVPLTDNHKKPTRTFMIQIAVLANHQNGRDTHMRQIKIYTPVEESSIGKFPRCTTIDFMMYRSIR
UniProt Q9UPT9: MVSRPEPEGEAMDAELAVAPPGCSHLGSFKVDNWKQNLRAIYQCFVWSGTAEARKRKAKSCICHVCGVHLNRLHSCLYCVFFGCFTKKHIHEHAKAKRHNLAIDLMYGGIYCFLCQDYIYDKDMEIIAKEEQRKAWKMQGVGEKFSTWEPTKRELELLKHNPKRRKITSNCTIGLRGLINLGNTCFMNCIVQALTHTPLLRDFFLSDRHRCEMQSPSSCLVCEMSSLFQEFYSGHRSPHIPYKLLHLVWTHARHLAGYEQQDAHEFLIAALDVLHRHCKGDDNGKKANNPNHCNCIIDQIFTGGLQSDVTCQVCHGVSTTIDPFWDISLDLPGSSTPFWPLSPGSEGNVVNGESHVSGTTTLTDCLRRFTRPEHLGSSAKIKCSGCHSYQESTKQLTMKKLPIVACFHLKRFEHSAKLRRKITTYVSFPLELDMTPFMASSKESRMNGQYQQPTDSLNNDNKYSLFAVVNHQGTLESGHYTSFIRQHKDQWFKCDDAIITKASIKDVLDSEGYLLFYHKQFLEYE
UniProt Q9UPP1: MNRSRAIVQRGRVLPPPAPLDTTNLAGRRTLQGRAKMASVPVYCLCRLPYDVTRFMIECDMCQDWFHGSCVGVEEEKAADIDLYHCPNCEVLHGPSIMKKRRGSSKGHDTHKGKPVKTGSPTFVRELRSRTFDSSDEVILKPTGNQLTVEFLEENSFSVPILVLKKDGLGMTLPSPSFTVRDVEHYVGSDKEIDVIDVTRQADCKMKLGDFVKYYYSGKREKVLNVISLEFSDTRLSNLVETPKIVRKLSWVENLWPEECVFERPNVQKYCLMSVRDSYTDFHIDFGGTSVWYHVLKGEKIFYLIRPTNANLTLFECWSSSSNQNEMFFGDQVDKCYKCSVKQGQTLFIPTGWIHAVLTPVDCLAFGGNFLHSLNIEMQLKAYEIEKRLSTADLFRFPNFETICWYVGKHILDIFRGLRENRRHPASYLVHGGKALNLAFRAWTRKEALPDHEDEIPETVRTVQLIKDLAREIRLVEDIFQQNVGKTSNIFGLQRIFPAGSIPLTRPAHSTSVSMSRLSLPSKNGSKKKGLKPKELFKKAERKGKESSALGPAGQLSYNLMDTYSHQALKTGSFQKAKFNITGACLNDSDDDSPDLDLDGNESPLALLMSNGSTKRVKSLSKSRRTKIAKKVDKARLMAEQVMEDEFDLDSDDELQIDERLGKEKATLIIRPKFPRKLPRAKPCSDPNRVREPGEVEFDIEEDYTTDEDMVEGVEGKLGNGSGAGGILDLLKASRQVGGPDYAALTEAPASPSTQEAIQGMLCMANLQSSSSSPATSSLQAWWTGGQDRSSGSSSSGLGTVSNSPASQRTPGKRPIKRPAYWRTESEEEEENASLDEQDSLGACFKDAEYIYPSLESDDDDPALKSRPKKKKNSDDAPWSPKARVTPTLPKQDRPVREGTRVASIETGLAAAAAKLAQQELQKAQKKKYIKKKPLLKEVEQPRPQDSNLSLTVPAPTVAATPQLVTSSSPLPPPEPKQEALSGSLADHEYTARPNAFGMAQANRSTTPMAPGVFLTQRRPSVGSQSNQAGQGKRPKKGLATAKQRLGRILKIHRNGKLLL
UniProt Q9UPS6, whole entry: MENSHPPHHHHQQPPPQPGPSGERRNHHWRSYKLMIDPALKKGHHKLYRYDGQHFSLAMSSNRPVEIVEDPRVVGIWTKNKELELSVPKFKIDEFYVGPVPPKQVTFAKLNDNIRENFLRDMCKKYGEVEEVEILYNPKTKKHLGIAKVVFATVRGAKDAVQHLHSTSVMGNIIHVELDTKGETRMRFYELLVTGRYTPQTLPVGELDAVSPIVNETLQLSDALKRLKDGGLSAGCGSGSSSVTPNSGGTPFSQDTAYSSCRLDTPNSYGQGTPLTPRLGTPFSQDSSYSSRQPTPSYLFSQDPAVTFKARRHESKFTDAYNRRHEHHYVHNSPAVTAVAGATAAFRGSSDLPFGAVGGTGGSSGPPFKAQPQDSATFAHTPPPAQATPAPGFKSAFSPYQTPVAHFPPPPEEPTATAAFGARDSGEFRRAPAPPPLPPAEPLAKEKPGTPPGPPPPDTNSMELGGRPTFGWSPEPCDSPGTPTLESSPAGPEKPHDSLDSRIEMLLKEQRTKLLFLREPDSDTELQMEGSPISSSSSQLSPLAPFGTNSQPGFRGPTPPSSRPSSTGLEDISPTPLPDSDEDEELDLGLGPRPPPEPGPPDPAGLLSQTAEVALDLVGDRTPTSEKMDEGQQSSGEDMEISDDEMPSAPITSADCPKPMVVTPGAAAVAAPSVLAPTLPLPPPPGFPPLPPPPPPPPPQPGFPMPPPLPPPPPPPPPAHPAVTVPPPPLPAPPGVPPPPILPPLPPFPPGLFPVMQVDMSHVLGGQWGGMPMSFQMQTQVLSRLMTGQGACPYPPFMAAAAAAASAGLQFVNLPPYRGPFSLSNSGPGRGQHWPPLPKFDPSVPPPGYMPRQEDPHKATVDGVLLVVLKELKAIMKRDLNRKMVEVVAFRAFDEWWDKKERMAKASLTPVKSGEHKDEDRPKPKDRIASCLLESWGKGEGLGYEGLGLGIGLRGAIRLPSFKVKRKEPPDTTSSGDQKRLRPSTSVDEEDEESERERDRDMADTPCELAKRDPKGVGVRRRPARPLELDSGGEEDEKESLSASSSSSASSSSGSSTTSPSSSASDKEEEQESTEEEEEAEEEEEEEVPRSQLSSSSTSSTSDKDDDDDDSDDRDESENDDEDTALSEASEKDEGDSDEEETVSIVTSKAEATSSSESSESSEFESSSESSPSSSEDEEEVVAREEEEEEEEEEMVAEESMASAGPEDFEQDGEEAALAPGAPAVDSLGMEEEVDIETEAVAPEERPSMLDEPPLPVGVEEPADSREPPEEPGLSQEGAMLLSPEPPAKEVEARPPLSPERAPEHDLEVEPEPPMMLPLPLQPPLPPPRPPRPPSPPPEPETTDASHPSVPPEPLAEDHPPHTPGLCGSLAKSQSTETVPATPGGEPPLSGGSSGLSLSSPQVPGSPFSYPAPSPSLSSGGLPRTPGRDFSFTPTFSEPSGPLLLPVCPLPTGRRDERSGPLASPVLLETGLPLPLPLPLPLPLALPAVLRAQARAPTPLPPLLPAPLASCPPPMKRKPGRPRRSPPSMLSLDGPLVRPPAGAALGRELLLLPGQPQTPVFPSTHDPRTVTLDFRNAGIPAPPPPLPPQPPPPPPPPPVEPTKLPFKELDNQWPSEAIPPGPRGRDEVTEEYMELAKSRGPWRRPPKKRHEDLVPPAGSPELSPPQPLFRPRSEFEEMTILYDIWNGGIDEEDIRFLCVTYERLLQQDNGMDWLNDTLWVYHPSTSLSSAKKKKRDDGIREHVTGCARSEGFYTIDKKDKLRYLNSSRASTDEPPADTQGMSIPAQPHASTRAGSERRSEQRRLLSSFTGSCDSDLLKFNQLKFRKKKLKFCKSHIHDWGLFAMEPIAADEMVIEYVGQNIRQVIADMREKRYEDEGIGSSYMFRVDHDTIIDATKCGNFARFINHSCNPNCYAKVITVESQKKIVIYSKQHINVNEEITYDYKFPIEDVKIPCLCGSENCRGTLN
UniProt Q9Y2H0: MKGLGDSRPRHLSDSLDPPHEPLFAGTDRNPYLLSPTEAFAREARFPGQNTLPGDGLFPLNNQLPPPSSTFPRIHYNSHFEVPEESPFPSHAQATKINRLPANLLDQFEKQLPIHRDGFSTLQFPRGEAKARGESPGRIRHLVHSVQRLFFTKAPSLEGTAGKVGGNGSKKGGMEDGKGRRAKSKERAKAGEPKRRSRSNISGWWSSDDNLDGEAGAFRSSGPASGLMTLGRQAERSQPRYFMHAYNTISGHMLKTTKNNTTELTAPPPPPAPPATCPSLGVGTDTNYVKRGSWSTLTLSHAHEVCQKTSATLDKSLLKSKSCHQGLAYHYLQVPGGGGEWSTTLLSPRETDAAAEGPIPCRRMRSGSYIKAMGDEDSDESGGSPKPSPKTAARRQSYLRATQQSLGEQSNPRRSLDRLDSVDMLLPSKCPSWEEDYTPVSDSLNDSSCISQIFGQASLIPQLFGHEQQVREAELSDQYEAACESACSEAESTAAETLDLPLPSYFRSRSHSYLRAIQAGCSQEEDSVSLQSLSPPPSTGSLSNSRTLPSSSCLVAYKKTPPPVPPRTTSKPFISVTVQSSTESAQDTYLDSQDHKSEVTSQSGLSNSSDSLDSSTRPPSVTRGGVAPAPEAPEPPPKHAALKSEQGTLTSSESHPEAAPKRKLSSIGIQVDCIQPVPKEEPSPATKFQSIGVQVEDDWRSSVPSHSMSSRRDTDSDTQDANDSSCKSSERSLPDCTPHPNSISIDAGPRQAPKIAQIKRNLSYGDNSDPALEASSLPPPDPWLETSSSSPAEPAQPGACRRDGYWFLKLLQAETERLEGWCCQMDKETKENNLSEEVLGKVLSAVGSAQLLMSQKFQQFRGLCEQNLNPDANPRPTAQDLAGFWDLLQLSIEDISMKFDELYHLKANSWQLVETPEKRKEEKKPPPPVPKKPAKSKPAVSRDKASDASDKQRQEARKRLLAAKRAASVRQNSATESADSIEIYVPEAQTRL

The other results are listed elsewhere or left out. Small differences around the control level are noise.

Compound in this test: CN[C@@H]1C[C@H]2O[C@@](C)([C@@H]1OC)n1c3ccccc3c3c4c(c5c6ccccc6n2c5c31)C(=O)NC4 [staurosporine]
Kind of test: log2 fold change of tryptic peptide abundance, ligand vs vehicle (limited proteolysis) (log2 ratio); higher = more trypsin-susceptible (destabilized). To be noted: ligand concentration: 20 uM; sample: K562 cleared lysate; digestion: 4 min, 22 C (HT-PELSA RT4min, Orbitrap Astral).
With “NUDC (peptide sequence: GKDMVVDIQRR, peptide start residue: 195) (UniProt Q9Y266)”, the log2 fold change was determined as 0.525.

For the target “DRG1 (peptide sequence: IGFVGFPSVGK, peptide start residue: 67) (UniProt Q9Y295)”, the log2 fold change came out at 0.21.

Consider “ZNF346 (peptide sequence: TVASSLGQIPMQR, peptide start residue: 270) (UniProt Q9UL40)”, for which the log2 fold change is -0.241.

In the case of “POLDIP2 (peptide sequence: VLETVGVFEVPK, peptide start residue: 61) (UniProt Q9Y2S7)”, the log2 fold change is -0.249.

Regarding “UniProt Q9Y2M0 (peptide sequence: SNDVVCKNQDELR, peptide start residue: 131)”, the log2 fold change is -0.956.

As to “GTF3C4 (peptide sequence: EILPFTDRK, peptide start residue: 752) (UniProt Q9UKN8)”, the log2 fold change was 0.234.

With “UniProt Q9UQ88 (peptide sequence: FLTYFPGR, peptide start residue: 703)”, the log2 fold change is -0.28.

Turning to “BTRC (peptide sequence: TYTYISR, peptide start residue: 599) (UniProt Q9Y297)”, the log2 fold change was -0.145.

Turning to “TFR2 (peptide sequence: LWGLFQR, peptide start residue: 4) (UniProt Q9UP52)”, the log2 fold change is -0.0657.

For “UniProt Q9Y224 (peptide sequence: HDDYLVMLK, peptide start residue: 146)”, the log2 fold change was found to be 0.0595.

Consider “ASAP1 (peptide sequence: TLSDPPSPLPHGPPNK, peptide start residue: 837) (UniProt Q9ULH1)”, for which the log2 fold change was -0.222.

For the target “FBXO5 (peptide sequence: EGCGFDYCTKCLCNYHTTK, peptide start residue: 399) (UniProt Q9UKT4)”, the log2 fold change was -1.3.

Turning to “ACOT9 (peptide sequence: KQGIFHIHEVR, peptide start residue: 31) (UniProt Q9Y305)”, the log2 fold change is -0.456.

Consider “SLC39A10 (peptide sequence: NNAIISLR, peptide start residue: 318) (UniProt Q9ULF5)”, for which the log2 fold change was -0.246.

For the target “USP20 (peptide sequence: MAPSYVLKK, peptide start residue: 417) (UniProt Q9Y2K6)”, the log2 fold change was determined as 0.375.

“UniProt Q9UQF2 (peptide sequence: GSLGEPPPPPR, peptide start residue: 354)”: the log2 fold change came to 0.2.

For the target “CNPY2 (peptide sequence: ALVDELEWEIAQVDPKK, peptide start residue: 33) (UniProt Q9Y2B0)”, the log2 fold change stood at 0.238.

Take “ANAPC10 (peptide sequence: CTTIDFMMYR, peptide start residue: 173) (UniProt Q9UM13)”: the log2 fold change was -0.159.

“RRP7A (peptide sequence: CAARDPEDRIPSPLGYAAIPIK, peptide start residue: 8) (UniProt Q9Y3A4)”: the log2 fold change came to 0.425.

Take “USP22 (peptide sequence: HLAGYEQQDAHEFLIAALDVLHR, peptide start residue: 254) (UniProt Q9UPT9)”: the log2 fold change turned out to be 0.217.

Consider “UniProt Q9UKN5 (peptide sequence: INSAVYSADESLSAHK, peptide start residue: 786)”, for which the log2 fold change is -0.268.

On to “PHF8 (peptide sequence: ATLIIRPK, peptide start residue: 666) (UniProt Q9UPP1)”, for which the log2 fold change came to 0.209.

“SETD1B (peptide sequence: FTDAYNR, peptide start residue: 317) (UniProt Q9UPS6)”: the log2 fold change was -0.232.

In the case of “SATB2 (peptide sequence: MQHVVQLPPEPVQVLHR, peptide start residue: 568) (UniProt Q9UPW6)”, the log2 fold change was 0.213.

Consider “AGAP1 (peptide sequence: RSNLFTSR, peptide start residue: 314) (UniProt Q9UPQ3)”, for which the log2 fold change was found to be 0.628.

For the target “GMEB2 (peptide sequence: FVCPGINVK, peptide start residue: 111) (UniProt Q9UKD1)”, the log2 fold change was determined as 0.109.

Consider “DLGAP4 (peptide sequence: SSVPSHSMSSR, peptide start residue: 701) (UniProt Q9Y2H0)”, for which the log2 fold change worked out at 0.349.

For “TMCO1 (peptide sequence: ETITESAGR, peptide start residue: 106) (UniProt Q9UM00)”, the log2 fold change is -0.156.
